Some entries share one result that the patent states for a list of compounds. At least one structure is not confirmed: it was looked up by name or label, or the drawing left a doubt.
What was measured:
Assay type in all cases: cell-based
[1] = system: Pythium ultimum; experiment: Pythium ultimum / liquid culture (seedling damping off); conditions: 200 ppm, potato dextrose broth, 2-3 days after application
[2] = system: Gaeumannomyces graminis; experiment: Gaeumannomyces graminis / liquid culture (take-all of cereals); conditions: 200 ppm, PDB, 4-5 days after application
[3] = system: Glomerella lagenarium (Colletotrichum lagenarium); experiment: Glomerella lagenarium / liquid culture (anthracnose); conditions: 200 ppm, PDB, 3-4 days after application
[4] = system: Monographella nivalis (Microdochium nivale); experiment: Monographella nivalis / liquid culture (foot rot cereals); conditions: 200 ppm, PDB, 4-5 days after application

Structure (SMILES)	disease control (inhibition of growth, photometric) [1]	disease control (inhibition of growth, photometric) [2]	disease control (inhibition of growth, photometric) [3]	disease control (inhibition of growth, photometric) [4]
CC(C)(C)ON=Cc1cccc2c1B(O)OC2 (single isomer, unassigned) [Compound 326]	at least 80%	at least 80%		
OB1OCc2cc(Cl)cc(C=NOCc3ccc(Cl)cc3)c21 (single isomer, unassigned) [Compound 192]		at least 80%	at least 80%	
CC(ON=Cc1cccc2c1B(O)OC2)c1cc(Cl)cc(Cl)c1 (single isomer, unassigned) [Compound 350]		at least 80%		at least 80%
O=C(NN=Cc1ccc2c(c1)COB2O)c1ccc2ccccc2n1 (single isomer, unassigned) [Compound 362]	at least 80%	at least 80%		at least 80%
O=[N+]([O-])c1cccc(NN=Cc2cccc3c2B(O)OC3)c1 (single isomer, unassigned) [Compound 318]	at least 80%	at least 80%	at least 80%	
CC(C#Cc1cccs1)=CCON=Cc1cc(F)cc2c1B(O)OC2 [Compound 295]	at least 80%	at least 80%		at least 80%
OB1OCc2cc(Cl)c(C=NOCc3c(F)c(F)c(F)c(F)c3F)cc21 (single isomer, unassigned) [Compound 55]		at least 80%		at least 80%
OB1OCc2cc(F)cc(C=NOCc3ccccc3F)c21 (single isomer, unassigned) [Compound 274]	at least 80%	at least 80%		
OB1OCc2cc(F)c(C=NOCc3ccc(F)cc3Cl)cc21 (single isomer, unassigned) [Compound 150]		at least 80%		
O=C(O)CCCON=Cc1cccc2c1B(O)OC2 (single isomer, unassigned) [Compound 344]	at least 80%	at least 80%	at least 80%	
O=[N+]([O-])c1cccc(NN=Cc2ccc3c(c2)COB3O)c1 (single isomer, unassigned) [Compound 386]		at least 80%		
ON=Cc1cc2c(cc1Cl)COB2O (single isomer, unassigned) [Compound 74]	at least 80%	at least 80%		at least 80%
OB1OCc2cc(F)cc(C=NNc3ccc(Oc4ccc(Cl)cc4)cc3)c21 (single isomer, unassigned) [Compound 235]	at least 80%	at least 80%	at least 80%	
CCC#CCOc1ccc(CON=Cc2cc(Cl)cc3c2B(O)OC3)cc1OC (single isomer, unassigned) [Compound 220]	at least 80%	at least 80%		
O=[N+]([O-])c1ccc(ON=Cc2cc(F)cc3c2B(O)OC3)cc1 (single isomer, unassigned) [Compound 289]		at least 80%	at least 80%	
CC(ON=Cc1cc(Cl)cc2c1B(O)OC2)c1ccc(Cl)c(Cl)c1 (single isomer, unassigned) [Compound 217]		at least 80%		at least 80%
O=[N+]([O-])c1ccccc1NN=Cc1ccc2c(c1)COB2O (single isomer, unassigned) [Compound 376]		at least 80%		
CC(C#Cc1cccs1)=CCON=Cc1cc(Cl)cc2c1B(O)OC2 [Compound 218]	at least 80%	at least 80%		
OB1OCc2cc(F)cc(C=NOCc3cc(Cl)c(Cl)cc3Cl)c21 (single isomer, unassigned) [Compound 286]		at least 80%		
OB1OCc2cc(F)c(C=NNc3nc4ccccc4o3)cc21 (single isomer, unassigned) [Compound 90]	at least 80%	at least 80%		
OB1OCc2cc(Cl)c(C=NNc3ccc(Cl)cc3Cl)cc21 (single isomer, unassigned) [Compound 9]	at least 80%	at least 80%	at least 80%	

Structure (SMILES)	disease control (inhibition of growth, photometric) [1]	disease control (inhibition of growth, photometric) [2]	disease control (inhibition of growth, photometric) [3]	disease control (inhibition of growth, photometric) [4]
CCOC(=O)CNN=Cc1cc(Cl)cc2c1B(O)OC2 (single isomer, unassigned) [Compound 228]	at least 80%		at least 80%	at least 80%
OB1OCc2cc(C=NNc3ccc(Cl)cc3Cl)ccc21 (single isomer, unassigned) [Compound 368]		at least 80%	at least 80%	
CCC#CCOc1ccc(CON=Cc2cc(F)cc3c2B(O)OC3)cc1OC (single isomer, unassigned) [Compound 297]	at least 80%	at least 80%	at least 80%	
OB1OCc2cc(Cl)cc(C=NNc3ccc(F)c(C(F)(F)F)c3)c21 (single isomer, unassigned) [Compound 175]	at least 80%		at least 80%	at least 80%
CCNC(=S)NN=Cc1cccc2c1B(O)OC2 (single isomer, unassigned) [Compound 356]	at least 80%		at least 80%	at least 80%
OB1OCc2cccc(C=NNc3ccc(Cl)cc3Cl)c21 (single isomer, unassigned) [Compound 308]		at least 80%		
CCCCCCON=Cc1cccc2c1B(O)OC2 (single isomer, unassigned) [Compound 330]	at least 80%	at least 80%		
O=[N+]([O-])c1cccc(NN=Cc2cc(Cl)cc3c2B(O)OC3)c1 (single isomer, unassigned) [Compound 184]	at least 80%	at least 80%	at least 80%	
OB1OCc2cc(F)cc(C=NNc3ccc(F)c(C(F)(F)F)c3)c21 (single isomer, unassigned) [Compound 254]	at least 80%	at least 80%	at least 80%	
NC(=S)NN=Cc1cccc2c1B(O)OC2 (single isomer, unassigned) [Compound 357]	at least 80%		at least 80%	at least 80%
OB1OCc2cccc(C=NOCc3ccc(Cl)cc3Cl)c21 (single isomer, unassigned) [Compound 347]		at least 80%	at least 80%	
OB1OCc2cc(F)c(C=NOCc3c(F)c(F)c(F)c(F)c3F)cc21 (single isomer, unassigned) [Compound 137]		at least 80%	at least 80%	
CC(ON=Cc1cccc2c1B(O)OC2)c1ccc(Cl)c(Cl)c1 (single isomer, unassigned) [Compound 351]		at least 80%		
CCOC(=O)CCCON=Cc1cc(F)cc2c1B(O)OC2 (single isomer, unassigned) [Compound 288]	at least 80%	at least 80%	at least 80%	
O=C(NN=Cc1cc2c(cc1F)COB2O)c1cc(Cl)ccc1Cl (single isomer, unassigned) [Compound 83]	at least 80%	at least 80%	at least 80%	
COC(=O)C(Cc1ccccc1)ON=Cc1cc(F)cc2c1B(O)OC2 (single isomer, unassigned) [Compound 283]	at least 80%	at least 80%		
OB1OCc2cc(Cl)cc(C=NNc3ccc(Cl)cc3)c21 (single isomer, unassigned) [Compound 183]	at least 80%		at least 80%	at least 80%
OB1OCc2cc(Cl)cc(C=NNCc3ccccc3)c21 (single isomer, unassigned) [Compound 169]	at least 80%	at least 80%		
COC(=O)C(Cc1ccccc1)ON=Cc1cccc2c1B(O)OC2 (single isomer, unassigned) [Compound 339]	at least 80%		at least 80%	at least 80%
OB1OCc2cc(C=NOCc3c(F)c(F)c(F)c(F)c3F)ccc21 (single isomer, unassigned) [Compound 410]		at least 80%		at least 80%

— patent US20170000132A1, “BENZOXABOROLE FUNGICIDES” (SYNGENTA PARTICIPATIONS AG, priority 2013, published 2017)
